Laboratory results reported in patent US20170073659A1, “NOVEL LYSYL TRNA SYNTHETASE FRAGMENT AND MICROVESICLES COMPRISING SAME” (Medicinal Bioconvergence Research Center, priority 2014, published 2017).
These are yes or no findings as the source states them, for the method shown. Some results given as binding are weak or reduced against the parent protein; the word gives no strength.

Amino acid sequences for entries named in this document (tags omitted). A change or cut given only in a name is not applied to a line headed by its entry.
UniProt O00560: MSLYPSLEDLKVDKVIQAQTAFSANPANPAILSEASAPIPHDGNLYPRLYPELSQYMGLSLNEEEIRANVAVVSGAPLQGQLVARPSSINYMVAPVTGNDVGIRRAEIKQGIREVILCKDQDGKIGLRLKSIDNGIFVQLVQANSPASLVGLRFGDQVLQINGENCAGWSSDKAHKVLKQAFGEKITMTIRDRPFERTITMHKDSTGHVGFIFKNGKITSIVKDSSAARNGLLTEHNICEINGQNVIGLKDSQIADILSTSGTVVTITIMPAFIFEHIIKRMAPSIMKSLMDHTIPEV
UniProt Q15046: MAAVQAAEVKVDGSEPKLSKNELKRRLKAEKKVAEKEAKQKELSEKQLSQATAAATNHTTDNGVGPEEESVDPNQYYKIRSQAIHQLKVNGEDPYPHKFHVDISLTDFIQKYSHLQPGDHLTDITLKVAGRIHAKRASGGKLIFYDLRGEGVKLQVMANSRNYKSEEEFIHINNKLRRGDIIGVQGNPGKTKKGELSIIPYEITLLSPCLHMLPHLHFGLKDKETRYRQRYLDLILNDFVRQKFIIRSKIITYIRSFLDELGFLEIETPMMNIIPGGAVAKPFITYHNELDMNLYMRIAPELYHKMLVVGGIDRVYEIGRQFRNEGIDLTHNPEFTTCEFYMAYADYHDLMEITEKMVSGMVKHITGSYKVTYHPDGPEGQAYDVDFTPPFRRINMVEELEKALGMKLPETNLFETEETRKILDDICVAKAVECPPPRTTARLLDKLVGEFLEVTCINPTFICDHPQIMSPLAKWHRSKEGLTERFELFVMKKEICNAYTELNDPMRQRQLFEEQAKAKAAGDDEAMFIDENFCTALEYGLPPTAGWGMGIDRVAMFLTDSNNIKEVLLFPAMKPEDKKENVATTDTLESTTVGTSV

Key:
[1] = biological target: syntenin-1, endogenous in HCT116 cells (Homo sapiens (Human)) (UniProt O00560); assay: anti-syntenin-1 immunoprecipitation from HCT116 lysate, anti-myc western blot (FIG. 3g)
[2] = biological target: syntenin-1, endogenous in HCT116 cells (Homo sapiens (Human)) (UniProt O00560); assay: immunoprecipitation of syntenin-1, western blot with anti-KRS antibody (FIG. 3c legend)
[3] = biological target: syntenin-1, endogenous in HCT116 cells (Homo sapiens (Human)) (UniProt O00560); assay: immunoprecipitation of syntenin-1, western blot with anti-KRS antibody, with or without Z-VAD-IETD (FIG. 3c)
[4] = biological target: syntenin-1, endogenous in HCT116 cells (Homo sapiens (Human)) (UniProt O00560); assay: immunoprecipitation of syntenin-1 from HCT116 lysate, western blot with anti-KRS antibody (FIG. 3b)
[5] = biological target: syntenin-1, endogenous in HCT116 cells (Homo sapiens (Human)) (UniProt O00560); assay: immunoprecipitation of syntenin-1 from HCT116 lysate, western blot with anti-KRS antibody (FIG. 3b legend)

binding [1]	binding [2]	binding [3]	binding [4]	binding [5]	Substance
no binding					KRS deletion mutant (▴c5(1-592 a.a))-myc (from UniProt Q15046 1-592) (enzyme)
	binds	binds	binds	binds	lysyl tRNA synthetase (KRS), endogenous in HCT116 cells (from UniProt Q15046 2-597) (enzyme)
